Here are results for one molecule from patent US20210198366A1.

The experiment deals with T1, human B7-H7 (soluble analyte in SPR) (human) (UniProt Q9UM44).
T1 sequence: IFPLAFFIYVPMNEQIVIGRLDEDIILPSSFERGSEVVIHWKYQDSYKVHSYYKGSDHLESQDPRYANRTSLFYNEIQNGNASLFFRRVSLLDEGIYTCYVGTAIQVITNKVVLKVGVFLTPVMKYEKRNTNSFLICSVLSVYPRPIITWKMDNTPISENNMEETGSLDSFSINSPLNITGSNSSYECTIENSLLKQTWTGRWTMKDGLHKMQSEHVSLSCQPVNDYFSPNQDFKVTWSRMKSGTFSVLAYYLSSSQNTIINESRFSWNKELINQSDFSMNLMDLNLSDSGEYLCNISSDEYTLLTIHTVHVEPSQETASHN
The experiment in a line: SPR (Biacore). A general note: Surface plasmon resonance follows binding to a sensor surface in real time, without labels.

No constants are given. Whether binding was seen depends on the method and setting. Some entries that bind do so weakly or less than the wild type.

B1: humanized anti-B7-H7 antibody Hz2D7 (antibody, human IgG1, kappa, V domains shown)
VH: QVQLVQSGAEVKKPGASVKVSCKTSGYTFTEYTMHWVRQAPGQGLEWMGGINPNNYGAPYNQKFKGRVTMTVDTSISTAYMELSRLRSDDTAVYYCASGGYYFDYWGQGTLVTVSS
VL: DIQMTQSPSSLSASVGDRVTITCKASQDVGTAVAWYQQKPGKAPKLLIYWAFTRHTGVPSRFSGSGSGTDYTLTISSLQPEDFATYYCQQHYDTPFTFGQGTKVEIKR
In the case of B1, the binding result is “binds”.
